Here are results for one compound from ChEMBL document CHEMBL5550090, “Synthesis and biological evaluation of 1H-pyrrolo[3,2-g]isoquinolines” (Bioorg Med Chem, 2024).

Structures are written as SMILES.

Holding throughout (assay): cells
The subject of one assay is U2OS. The note with it: Homo sapiens, 48 h.
The subject of the next assay is SH-SY5Y. Conditions: Homo sapiens, 48 h.
A further assay has as its system HBL-100. The note with it: Homo sapiens, HBL-100, 48 h.
For the next assay, the system named is HCT-116. The note with it: Homo sapiens, HCT-116, 48 h.
Another assay relates to TERT-RPE1. The note with it: Homo sapiens, RPE-1, 48 h.

For orientation: EC50 means the concentration needed to bring the measured effect to its halfway point. For the compound `CCCNc1ccc2ncc(-c3ccc4[nH]ncc4c3)n2n1`, the 50% effective concentration (EC50) was 900 nM with U2OS; more than 50000 nM with SH-SY5Y; 25700 nM in the assay on HBL-100; 2200 nM with HCT-116; 1400 nM in the assay with TERT-RPE1.
